Data as given in patent US20250034212A1 (PEPTIDREAM INC., priority 2021, published 2025).

Assay: general procedure: Fmoc solid-phase peptide synthesis; Fmoc-Sieber amide resin (0.47 mmol/g); HA-tag resin (0.65 mmol/g)
Conditions: UV 225 nm

Row | Substance | final purity (method not given) (conjugation step) | final purity (method not given) (whole synthesis)
1 | F-Nal1-V-V-N-V-4Py-D-D-PeG-V-Nal1-Y-H-KCOpipzaa-C-G K(MePEG8c) | 98.2% | –
2 | F-Nal1-V-V-N-V-Y-D-D-PeG-V-Nal1-Y-H-V-C-G | – | 96.0%
